US20160340659A1, “ACTIN BINDING PEPTIDES AND COMPOSITIONS COMPRISING SAME FOR INHIBITING ANGIOGENESIS AND TREATING MEDICAL CONDITIONS ASSOCIATED WITH SAME” (YISSUM RESEARCH AND DEVELOPMENT COMPANY OF THE HEBREW …, priority 2014, published 2016)

System: HUVEC cells
Test: Immunofluorescence localization of labeled peptide in HUVEC cells
Assay type: cell-based, human

## KKYFGRSLELYRELDLNSVLLKLGIK [SEQ ID NO: 57, 26-amino acid peptide representing amino acids 108-133 of RNASET2]
HUVE cells, 10 minutes, 2 and 8 hours
  cellular localization of green fluorescent labeled peptide: observed in the cytoplasm surrounding the nucleus
HUVEC cells incubated with peptide and angiogenin, 10 min, 2 h, 8 h
  co-localization with angiogenin: co-localization of both molecules was observed
